Laboratory results taken from PubChem BioAssay AID330 (DTP/NCI, 2004).
The list shows only some results of the screen, not a fair sample: it is rich in T/C values a quarter to a half above the control, in often repeated tests (any T/C) and in doses without a T/C. Further doses and runs are listed elsewhere. T/C: endpoint of the treated group in % of that of the vehicle group. Some entries give survivors of the animals treated and no T/C: the source holds a T/C of zero for them, seemingly a mark for toxic or unscored doses. Some doses without a T/C left all or most animals alive at the check, yet need not have been tolerated: the source hardly ever lists a survival T/C far under the control, and the zero likely stands for such cases as well. Counts of survivors are from the toxicity check (mostly the fifth day) where no day follows; animals may have died later. Schedule codes are those of the source, taken here to give the interval after Q, in days (D) or hours (H), and the number of doses after X. Some doses were run more than once; the results are listed from low to high. For survival time, the PubChem record calls one and a half times the control and up active, and a quarter to a half above the control has no call in these data; cut-offs in other NCI protocols can differ. Some T/C values carry the count of animals alive at the toxicity check (mostly the fifth day); without a count, all were alive then.

System: P388 leukemia ip, CD2F1 mice, survival T/C
Experiment: NCI In Vivo Anticancer Drug Screen. Data for tumor model P388 Leukemia (intraperitoneal) in CD2F1 (CDF1) mice
Conditions: T/C endpoint: median survival time, higher T/C = longer survival
[1] = dose: 120.0 mg/kg/injection, schedule: Q01DX005 (ip), vehicle: saline with Tween-80
[2] = dose: 240.0 mg/kg/injection, schedule: Q01DX005 (ip), vehicle: saline with Tween-80
[3] = dose: 50.0 mg/kg/injection, schedule: Q01DX009 (ip), vehicle: saline with Tween-80
[4] = dose: 200.0 mg/kg/injection, schedule: Q01DX009 (ip), vehicle: saline
[5] = dose: 200.0 mg/kg/injection, schedule: Q01DX009 (ip), vehicle: saline with Tween-80
[6] = dose: 50.0 mg/kg/injection, schedule: Q01DX009 (ip), vehicle: Klucel (hydroxypropylcellulose) (HPC)
[7] = dose: 100.0 mg/kg/injection, schedule: Q01DX009 (ip), vehicle: Klucel (hydroxypropylcellulose) (HPC)
[8] = dose: 200.0 mg/kg/injection, schedule: Q01DX009 (ip), vehicle: Klucel (hydroxypropylcellulose) (HPC)
[9] = dose: 100.0 mg/kg/injection, schedule: Q01DX009 (ip), vehicle: saline with Tween-80

## CCc1nc(N)nc(N)c1-c1ccc(N2CCCCC2)cc1
dose: 60.0 mg/kg/injection, schedule: Q01DX005 (ip), vehicle: saline with Tween-80
  survivor count: 1 of 6
[1]
  survivor count: 0 of 6
[2]
  survivor count: 0 of 6

## CC(=O)CC(=O)c1c(-c2ccccc2)[nH]c2ccccc12
dose: 200.0 mg/kg/injection, schedule: Q04DX003 (ip), vehicle: saline + alcohol
  survivor count: 0 of 6
dose: 400.0 mg/kg/injection, schedule: Q04DX003 (ip), vehicle: saline + alcohol
  survivor count: 0 of 6

## CC(=O)n1c2ccccc2c2c(C)c3c[n+]([O-])ccc3c(C)c21
dose: 100.0 mg/kg/injection, schedule: Q04DX002 (ip), vehicle: saline with Tween-80
  T/C: 142 % of control

## N#CC1=C(N)OC(C2CC2)=C(C#N)C1c1ccco1 (stereo not given)
dose: 240.0 mg/kg/injection, schedule: Q01DX005 (ip), vehicle: Klucel (hydroxypropylcellulose) (HPC)
  survivor count: 6 of 6

## O=P(c1ccccc1)(c1ccccc1)c1ccccc1.O=P(c1ccccc1)(c1ccccc1)c1ccccc1.O=S(=O)(O)O.[Fe]
dose: 400.0 mg/kg/injection, schedule: Q04DX003 (ip), vehicle: Klucel (hydroxypropylcellulose) (HPC)
  survivor count: 1 of 6

## NC(=S)Nc1cccc2ccccc12
[3]
  survivor count: 4 of 6
dose: 75.0 mg/kg/injection, schedule: Q01DX009 (ip), vehicle: saline with Tween-80
  survivor count: 0 of 6 and 3 of 6

## CNNCc1ccc(C(=O)NC(N)=O)cc1
dose: 88.0 mg/kg/injection, schedule: Q01DX009 (ip), vehicle: saline
  T/C: 125 % of control
dose: 133.0 mg/kg/injection, schedule: Q01DX009 (ip), vehicle: saline
  T/C: 130 % of control
[4]
  T/C: 140 % of control

## O=C1C(Cl)=C(n2c(=O)oc3ccccc32)C(=O)c2ccccc21
[5]
  survivor count: 3 of 6

## N=c1ccc([N+](=O)[O-])cn1O
[4]
  survivor count: 4 of 6

## CCCCCC(=O)SCC(=O)OCC(=O)[C@]1(O)Cc2c(O)c3c(c(O)c2[C@@H](OC2CC(N)C(O)C(C)O2)C1)C(=O)c1c(OC)cccc1C3=O (stereo not given in full)
dose: 0.39 mg/kg/injection, schedule: Q01DX009 (ip), vehicle: water
  T/C: 148 % of control
dose: 12.5 mg/kg/injection, schedule: Q01DX009 (ip), vehicle: water
  survivor count: 6 of 6
dose: 25.0 mg/kg/injection, schedule: Q01DX009 (ip), vehicle: water
  survivor count: 1 of 6

## CCN(CC)CCNc1ccnc(F)n1
[1]
  survivor count: 0 of 6
[2]
  survivor count: 0 of 6

## O=C1c2ccccc2SCC12OC2c1ccc(Cl)cc1 (stereo not given)
dose: 400.0 mg/kg/injection, schedule: Q04DX002 (ip), vehicle: saline with Tween-80
  survivor count: 6 of 6

## CCc1nc(N)nc(N)c1-c1ccc(NCCCN)c(N)c1
dose: 100.0 mg/kg/injection, schedule: Q01DX005 (ip), vehicle: Klucel (hydroxypropylcellulose) (HPC)
  survivor count: 2 of 6
dose: 200.0 mg/kg/injection, schedule: Q01DX005 (ip), vehicle: Klucel (hydroxypropylcellulose) (HPC)
  survivor count: 0 of 6

## CCC[CH2][Sn]([CH2]CCC)([S]C(C)=O)[S]C(C)=O
dose: 100.0 mg/kg/injection, schedule: Q01DX001 (ip), vehicle: Klucel (hydroxypropylcellulose) (HPC)
  survivor count: 0 of 6
dose: 200.0 mg/kg/injection, schedule: Q01DX001 (ip), vehicle: Klucel (hydroxypropylcellulose) (HPC)
  survivor count: 0 of 6
dose: 400.0 mg/kg/injection, schedule: Q01DX001 (ip), vehicle: Klucel (hydroxypropylcellulose) (HPC)
  survivor count: 1 of 6

## O=C(Nc1ccc(Cl)cc1)OC1CCS(=O)(=O)C1 (stereo not given)
[6]
  survivor count: 6 of 6

## C=C(CN(C)C)C(=O)c1ccc(OC)cc1
dose: 7.5 mg/kg/injection, schedule: Q01DX005 (ip), vehicle: saline with Tween-80
  survivor count: 1 of 6
dose: 15.0 mg/kg/injection, schedule: Q01DX005 (ip), vehicle: saline with Tween-80
  survivor count: 0 of 6
dose: 30.0 mg/kg/injection, schedule: Q01DX005 (ip), vehicle: saline with Tween-80
  survivor count: 0 of 6
dose: 60.0 mg/kg/injection, schedule: Q01DX005 (ip), vehicle: saline
  survivor count: 0 of 6
dose: 120.0 mg/kg/injection, schedule: Q01DX005 (ip), vehicle: saline
  survivor count: 0 of 6
dose: 240.0 mg/kg/injection, schedule: Q01DX005 (ip), vehicle: saline
  survivor count: 0 of 6

## Clc1ccc(-c2csc3cccc[n+]23)cc1
[6]
  survivor count: 0 of 6
[7]
  survivor count: 1 of 6
[8]
  survivor count: 0 of 6

## NNc1ncnc2nc[nH]c12
[3]
  survivor count: 2 of 6
dose: 50.0 mg/kg/injection, schedule: Q01DX009 (ip), vehicle: saline
  survivor count: 4 of 6
[9]
  survivor count: 0 of 6
[5]
  survivor count: 0 of 6
dose: 400.0 mg/kg/injection, schedule: Q04DX003 (ip), vehicle: saline sonified
  survivor count: 0 of 6

## COc1ccc(C(NCCn2cnc3c2c(=O)n(C)c(=O)n3C)c2ccccc2)cc1 (stereo not given)
dose: 50.0 mg/kg/injection, schedule: Q01DX005 (ip), vehicle: other
  survivor count: 0 of 5
dose: 100.0 mg/kg/injection, schedule: Q01DX005 (ip), vehicle: other
  survivor count: 0 of 5
dose: 200.0 mg/kg/injection, schedule: Q01DX005 (ip), vehicle: other
  survivor count: 0 of 5

## CCC1OC(O)C=CC1=O (stereo not given)
dose: 6.0 mg/kg/injection, schedule: Q01DX005 (ip), vehicle: saline
  survivor count: 2 of 6 and 2 of 5
dose: 12.0 mg/kg/injection, schedule: Q01DX005 (ip), vehicle: saline
  survivor count: 0 of 6
dose: 25.0 mg/kg/injection, schedule: Q01DX005 (ip), vehicle: saline
  survivor count: 0 of 6
dose: 50.0 mg/kg/injection, schedule: Q01DX005 (ip), vehicle: saline
  survivor count: 0 of 6
dose: 100.0 mg/kg/injection, schedule: Q01DX005 (ip), vehicle: saline
  survivor count: 0 of 6
dose: 200.0 mg/kg/injection, schedule: Q01DX005 (ip), vehicle: saline
  survivor count: 0 of 6

## CCOC(=O)N1C(=O)C2C3C=CC(C2C1=O)C1C2C(=O)N(C(=O)OCC)C(=O)C2C31 (stereo not given)
[6]
  T/C: 135 % of control
[7]
  T/C: 145 % of control
[8]
  survivor count: 0 of 6 and 6 of 6

## O=S1C2CCC(Br)C1CCC2Br (stereo not given)
dose: 3.12 mg/kg/injection, schedule: Q04DX002 (ip), vehicle: saline + alcohol
  survivor count: 3 of 6
dose: 6.25 mg/kg/injection, schedule: Q04DX002 (ip), vehicle: saline + alcohol
  survivor count: 0 of 6
dose: 12.5 mg/kg/injection, schedule: Q04DX002 (ip), vehicle: saline + alcohol
  survivor count: 0 of 6
dose: 25.0 mg/kg/injection, schedule: Q04DX002 (ip), vehicle: saline + alcohol
  survivor count: 0 of 6
dose: 50.0 mg/kg/injection, schedule: Q04DX002 (ip), vehicle: saline + alcohol
  survivor count: 0 of 6
dose: 100.0 mg/kg/injection, schedule: Q04DX002 (ip), vehicle: saline + alcohol
  survivor count: 0 of 6
dose: 200.0 mg/kg/injection, schedule: Q04DX002 (ip), vehicle: saline + alcohol
  survivor count: 0 of 6
dose: 400.0 mg/kg/injection, schedule: Q04DX002 (ip), vehicle: saline + alcohol
  survivor count: 0 of 6

## COc1cccc2c1C(=O)c1c(O)c3c(c(O)c1C2=O)CC(O)(C(C)=O)CC3OC1CC(NC2CCOCC2)C(O)C(C)O1 (stereo not given)
dose: 25.0 mg/kg/injection, schedule: Q04DX003 (ip), vehicle: water
  T/C: 126 % of control
dose: 50.0 mg/kg/injection, schedule: Q04DX003 (ip), vehicle: water
  T/C: 129 % of control
dose: 100.0 mg/kg/injection, schedule: Q04DX003 (ip), vehicle: water
  T/C: 136 % of control

## O=C1NC(=O)C(=Cc2c(Cl)cccc2Cl)C(=O)N1
[3]
  T/C: 125 % of control
[9]
  T/C: 131 % of control
  survivor count: 3 of 6
[5]
  survivor count: 0 of 6

## COC(=O)c1ccc(N=NN(C)C)cc1
dose: 100.0 mg/kg/injection, schedule: Q01DX009 (ip), vehicle: suspension in saline
  survivor count: 6 of 6
[4]
  T/C: 141 % of control [5 of 6 alive]
